The results in this text go back to publication PMC5841321.

T1: E3 ubiquitin-protein ligase Midline-1 (UniProt O15344)
T1 sequence: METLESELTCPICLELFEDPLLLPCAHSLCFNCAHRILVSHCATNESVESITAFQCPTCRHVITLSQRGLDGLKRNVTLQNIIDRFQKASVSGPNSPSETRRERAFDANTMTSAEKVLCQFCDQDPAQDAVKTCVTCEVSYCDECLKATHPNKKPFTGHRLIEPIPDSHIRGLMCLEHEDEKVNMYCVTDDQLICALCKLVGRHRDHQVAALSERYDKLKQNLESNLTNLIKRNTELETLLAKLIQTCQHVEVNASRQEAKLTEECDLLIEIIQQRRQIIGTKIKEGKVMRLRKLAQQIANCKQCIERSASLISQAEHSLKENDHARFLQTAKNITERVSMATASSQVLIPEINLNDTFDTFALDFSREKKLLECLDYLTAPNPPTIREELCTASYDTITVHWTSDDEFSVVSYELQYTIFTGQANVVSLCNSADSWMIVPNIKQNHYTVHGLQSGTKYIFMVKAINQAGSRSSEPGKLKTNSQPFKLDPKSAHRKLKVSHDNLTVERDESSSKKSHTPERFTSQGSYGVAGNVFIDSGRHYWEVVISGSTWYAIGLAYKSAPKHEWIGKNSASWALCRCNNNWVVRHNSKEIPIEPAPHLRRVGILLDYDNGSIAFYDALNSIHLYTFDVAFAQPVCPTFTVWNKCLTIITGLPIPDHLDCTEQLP

B1: CLIP-associating protein 2 (protein, UniProt O75122 1-1294)
chain: MAMGDDKSFDDEESVDGNRPSSAASAFKVPAPKTSGNPANSARKPGSAGGPKVGGASKEGGAGAVDEDDFIKAFTDVPSIQIYSSRELEETLNKIREILSDDKHDWDQRANALKKIRSLLVAGAAQYDCFFQHLRLLDGALKLSAKDLRSQVVREACITVAHLSTVLGNKFDHGAEAIVPTLFNLVPNSAKVMATSGCAAIRFIIRHTHVPRLIPLITSNCTSKSVPVRRRSFEFLDLLLQEWQTHSLERHAAVLVETIKKGIHDADAEARVEARKTYMGLRNHFPGEAETLYNSLEPSYQKSLQTYLKSSGSVASLPQSDRSSSSSQESLNRPFSSKWSTANPSTVAGRVSAGSSKASSLPGSLQRSRSDIDVNAAAGAKAHHAAGQSVRSGRLGAGALNAGSYASLEDTSDKLDGTASEDGRVRAKLSAPLAGMGNAKADSRGRSRTKMVSQSQPGSRSGSPGRVLTTTALSTVSSGVQRVLVNSASAQKRSKIPRSQGCSREASPSRLSVARSSRIPRPSVSQGCSREASRESSRDTSPVRSFQPLASRHHSRSTGALYAPEVYGASGPGYGISQSSRLSSSVSAMRVLNTGSDVEEAVADALKKPARRRYESYGMHSDDDANSDASSACSERSYSSRNGSIPTYMRQTEDVAEVLNRCASSNWSERKEGLLGLQNLLKNQRTLSRVELKRLCEIFTRMFADPHGKRVFSMFLETLVDFIQVHKDDLQDWLFVLLTQLLKKMGADLLGSVQAKVQKALDVTRESFPNDLQFNILMRFTVDQTQTPSLKVKVAILKYIETLAKQMDPGDFINSSETRLAVSRVITWTTEPKSSDVRKAAQSVLISLFELNTPEFTMLLGALPKTFQDGATKLLHNHLRNTGNGTQSSMGSPLTRPTPRSPANWSSPLTSPTNTSQNTLSPSAFDYDTENMNSEDIYSSLRGVTEAIQNFSFRSQEDMNEPLKRDSKKDDGDSMCGGPGMSDPRAGGDATDSSQTALDNKASLLHSMPTHSSPRSRDYNPYNYSDSISPFNKSALKEAMFDDDADQFPDDLSLDHSDLVAELLKELSNHNERVEERKIALYELMKLTQEESFSVWDEHFKTILLLLLETLGDKEPTIRALALKVLREILRHQPARFKNYAELTVMKTLEAHKDPHKEVVRSAEEAASVLATSISPEQCIKVLCPIIQTADYPINLAAIKMQTKVIERVSKETLNLLLPEIMPGLIQGYDNSESSVRKACVFCLVAVHAVIGDELKPHLSQLTGSKMKLLNLYIKRAQTGSGGADPTTDVSGQS
B2: RRP12-like protein (protein, UniProt Q5JTH9 1-1297)
chain: MGRSGKLPSGVSAKLKRWKKGHSSDSNPAICRHRQAARSRFFSRPSGRSDLTVDAVKLHNELQSGSLRLGKSEAPETPMEEEAELVLTEKSSGTFLSGLSDCTNVTFSKVQRFWESNSAAHKEICAVLAAVTEVIRSQGGKETETEYFAALMTTMEAVESPESLAAVAYLLNLVLKRVPSPVLIKKFSDTSKAFMDIMSAQASSGSTSVLRWVLSCLATLLRKQDLEAWGYPVTLQVYHGLLSFTVHPKPKIRKAAQHGVCSVLKGSEFMFEKAPAHHPAAISTAKFCIQEIEKSGGSKEATTTLHMLTLLKDLLPCFPEGLVKSCSETLLRVMTLSHVLVTACAMQAFHSLFHARPGLSTLSAELNAQIITALYDYVPSENDLQPLLAWLKVMEKAHINLVRLQWDLGLGHLPRFFGTAVTCLLSPHSQVLTAATQSLKEILKECVAPHMADIGSVTSSASGPAQSVAKMFRAVEEGLTYKFHAAWSSVLQLLCVFFEACGRQAHPVMRKCLQSLCDLRLSPHFPHTAALDQAVGAAVTSMGPEVVLQAVPLEIDGSEETLDFPRSWLLPVIRDHVQETRLGFFTTYFLPLANTLKSKAMDLAQAGSTVESKIYDTLQWQMWTLLPGFCTRPTDVAISFKGLARTLGMAISERPDLRVTVCQALRTLITKGCQAEADRAEVSRFAKNFLPILFNLYGQPVAAGDTPAPRRAVLETIRTYLTITDTQLVNSLLEKASEKVLDPASSDFTRLSVLDLVVALAPCADEAAISKLYSTIRPYLESKAHGVQKKAYRVLEEVCASPQGPGALFVQSHLEDLKKTLLDSLRSTSSPAKRPRLKCLLHIVRKLSAEHKEFITALIPEVILCTKEVSVGARKNAFALLVEMGHAFLRFGSNQEEALQCYLVLIYPGLVGAVTMVSCSILALTHLLFEFKGLMGTSTVEQLLENVCLLLASRTRDVVKSALGFIKVAVTVMDVAHLAKHVQLVMEAIGKLSDDMRRHFRMKLRNLFTKFIRKFGFELVKRLLPEEYHRVLVNIRKAEARAKRHRALSQAAVEEEEEEEEEEEPAQGKGDSIEEILADSEDEEDNEEEERSRGKEQRKLARQRSRAWLKEGGGDEPLNFLDPKVAQRVLATQPGPGRGRKKDHGFKVSADGRLIIREEADGNKMEEEEGAKGEDEEMADPMEDVIIRNKKHQKLKHQKEAEEEELEIPPQYQAGGSGIHRPVAKKAMPGAEYKAKKAKGDVKKKGRPDPYAYIPLNRSKLNRRKKMKLQGQFKGLVKAARRGSQVGHKNRRKDRRP
B3: ATP-binding cassette sub-family F member 2 (protein, UniProt Q9UG63 1-623)
chain: MPSDLAKKKAAKKKEAAKARQRPRKGHEENGDVVTEPQVAEKNEANGRETTEVDLLTKELEDFEMKKAAARAVTGVLASHPNSTDVHIINLSLTFHGQELLSDTKLELNSGRRYGLIGLNGIGKSMLLSAIGKREVPIPEHIDIYHLTREMPPSDKTPLHCVMEVDTERAMLEKEAERLAHEDAECEKLMELYERLEELDADKAEMRASRILHGLGFTPAMQRKKLKDFSGGWRMRVALARALFIRPFMLLLDEPTNHLDLDACVWLEEELKTFKRILVLVSHSQDFLNGVCTNIIHMHNKKLKYYTGNYDQYVKTRLELEENQMKRFHWEQDQIAHMKNYIARFGHGSAKLARQAQSKEKTLQKMMASGLTERVVSDKTLSFYFPPCGKIPPPVIMVQNVSFKYTKDGPCIYNNLEFGIDLDTRVALVGPNGAGKSTLLKLLTGELLPTDGMIRKHSHVKIGRYHQHLQEQLDLDLSPLEYMMKCYPEIKEKEEMRKIIGRYGLTGKQQVSPIRNLSDGQKCRVCLAWLAWQNPHMLFLDEPTNHLDIETIDALADAINEFEGGMMLVSHDFRLIQQVAQEIWVCEKQTITKWPGDILAYKEHLKSKLVDEEPQLTKRTHNV
B4: Coatomer subunit gamma-2 (protein, UniProt Q9UBF2 1-871)
chain: MIKKFDKKDEESGSGSNPFQHLEKSAVLQEARIFNETPINPRRCLHILTKILYLLNQGEHFGTTEATEAFFAMTRLFQSNDQTLRRMCYLTIKEMATISEDVIIVTSSLTKDMTGKEDVYRGPAIRALCRITDGTMLQAIERYMKQAIVDKVSSVSSSALVSSLHMMKISYDVVKRWINEAQEAASSDNIMVQYHALGVLYHLRKNDRLAVSKMLNKFTKSGLKSQFAYCMLIRIASRLLKETEDGHESPLFDFIESCLRNKHEMVIYEAASAIIHLPNCTARELAPAVSVLQLFCSSPKPALRYAAVRTLNKVAMKHPSAVTACNLDLENLITDSNRSIATLAITTLLKTGSESSVDRLMKQISSFVSEISDEFKVVVVQAISALCQKYPRKHSVMMTFLSNMLRDDGGFEYKRAIVDCIISIVEENPESKEAGLAHLCEFIEDCEHTVLATKILHLLGKEGPRTPVPSKYIRFIFNRVVLENEAVRAAAVSALAKFGAQNESLLPSILVLLQRCMMDTDDEVRDRATFYLNVLQQRQMALNATYIFNGLTVSVPGMEKALHQYTLEPSEKPFDMKSIPLAMAPVFEQKAEITLVATKPEKLAPSRQDIFQEQLAAIPEFLNIGPLFKSSEPVQLTEAETEYFVRCIKHMFTNHIVFQFDCTNTLNDQLLEKVTVQMEPSDSYEVLSCIPAPSLPYNQPGICYTLVRLPDDDPTAVAGSFSCTMKFTVRDCDPNTGVPDEDGYDDEYVLEDLEVTVSDHIQKVLKPNFAAAWEEVGDTFEKEETFALSSTKTLEEAVNNIITFLGMQPCERSDKVPENKNSHSLYLAGIFRGGYDLLVRSRLALADGVTMQVTVRSKERTPVDVILASVG
B5: Ribosome-binding protein 1 (protein, UniProt Q9P2E9 1-1410)
chain: MDIYDTQTLGVVVFGGFMVVSAIGIFLVSTFSMKETSYEEALANQRKEMAKTHHQKVEKKKKEKTVEKKGKTKKKEEKPNGKIPDHDPAPNVTVLLREPVRAPAVAVAPTPVQPPIIVAPVATVPAMPQEKLASSPKDKKKKEKKVAKVEPAVSSVVNSIQVLTSKAAILETAPKEVPMVVVPPVGAKGNTPATGTTQGKKAEGTQNQSKKAEGAPNQGRKAEGTPNQGKKTEGTPNQGKKAEGTPNQGKKAEGTPNQGKKAEGAQNQGKKVDTTPNQGKKVEGAPTQGRKAEGAQNQAKKVEGAQNQGKKAEGAQNQGKKGEGAQNQGKKAEGAQNQGKKAEGAQNQGKKAEGAQNQGKKAEGAQNQGKKAEGAQNQGKKAEGAQNQGKKVEGAQNQGKKAEGAQNQGKKAEGAQNQGKKAEGAQNQGKKAEGAQNQGKKAEGAQNQGKKAEGAQNQGKKAEGAQNQGKKVEGAQNQGKKAEGAQNQGKKAEGAQNQGKKAEGAQNQGQKGEGAQNQGKKTEGAQGKKAERSPNQGKKGEGAPIQGKKADSVANQGTKVEGITNQGKKAEGSPSEGKKAEGSPNQGKKADAAANQGKKTESASVQGRNTDVAQSPEAPKQEAPAKKKSGSKKKGEPGPPDADGPLYLPYKTLVSTVGSMVFNEGEAQRLIEILSEKAGIIQDTWHKATQKGDPVAILKRQLEEKEKLLATEQEDAAVAKSKLRELNKEMAAEKAKAAAGEAKVKKQLVAREQEITAVQARMQASYREHVKEVQQLQGKIRTLQEQLENGPNTQLARLQQENSILRDALNQATSQVESKQNAELAKLRQELSKVSKELVEKSEAVRQDEQQRKALEAKAAAFEKQVLQLQASHRESEEALQKRLDEVSRELCHTQSSHASLRADAEKAQEQQQQMAELHSKLQSSEAEVRSKCEELSGLHGQLQEARAENSQLTERIRSIEALLEAGQARDAQDVQASQAEADQQQTRLKELESQVSGLEKEAIELREAVEQQKVKNNDLREKNWKAMEALATAEQACKEKLLSLTQAKEESEKQLCLIEAQTMEALLALLPELSVLAQQNYTEWLQDLKEKGPTLLKHPPAPAEPSSDLASKLREAEETQSTLQAECDQYRSILAETEGMLRDLQKSVEEEEQVWRAKVGAAEEELQKSRVTVKHLEEIVEKLKGELESSDQVREHTSHLEAELEKHMAAASAECQNYAKEVAGLRQLLLESQSQLDAAKSEAQKQSDELALVRQQLSEMKSHVEDGDIAGAPASSPEAPPAEQDPVQLKTQLEWTEAILEDEQTQRQKLTAEFEEAQTSACRLQEELEKLRTAGPLESSETEEASQLKERLEKEKKLTSDLGRAATRLQELLKTTQEQLAREKDTVKKLQEQLEKAEDGSSSKEGTSV

Results are given in words; binding and its absence hold for the method and conditions named. Binding seen in cells or lysates may run through a third protein. A yes stands for co-enrichment or nearness to the bait. Other partners may have been found.

The target of the experiment is T1, E3 ubiquitin-protein ligase Midline-1. The experiment in a line: affinity purification with mass spectrometry; MID1-FLAG expressed in HEK293T, lysate in TKM buffer (20 mM Tris pH 7.4, 100 mM KCl, 5 mM MgCl2, 0.5% NP40, 1 mM DTT), anti-FLAG M1 agarose overnight at 4 °C, 6 washes; untransfected cells as control; Q-Exactive, MaxQuant, 1% FDR.
For B1, the binding result is reported as “binds”. Regarding B2, the binding entry was “binds”. Next, B3: “binds”. In the case of B4 it was “binds”. In the case of B5 it was “binds”.
